# Test results as given in the supplement of paper PMC4604168 (melanoma cell lines).
# The other results are listed elsewhere or left out. Repeats are few or missing, and single values can be far off.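 Imaging used 1,536-well plates; nuclei positive for cleaved PARP by antibody were divided by total DNA-stained nuclei to yield the apoptosis fraction. Doses for screening kept most cells viable, and cell lines differ markedly in resting and induced cleaved-PARP levels.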
# Experiments:
# Assay in all cases: cleaved PARP positive nuclei fraction relative to DMSO control; melanoma cells; higher = more apoptosis
# Details in all cases: library dose: low library concentration; 72 h
# [1] = test system: 501Mel
# [2] = test system: A101D
# [3] = test system: A2058
# [4] = test system: C32
# [5] = test system: CBRC008 (line from a melanoma biopsy)
# [6] = test system: CBRC014 (line from a melanoma biopsy)
# [7] = test system: CBRC016 (line from a melanoma biopsy)
# [8] = test system: CBRC017 (line from a melanoma biopsy)
# [9] = test system: COLO792
# [10] = test system: COLO800
# [11] = test system: COLO829
# [12] = test system: G361
# [13] = test system: IPC-298
# [14] = test system: IST-MEL1
# [15] = test system: LB2518-MEL
# [16] = test system: LOXIMVI
SMILES,cleaved PARP positive nuclei fraction [1] [%],cleaved PARP positive nuclei fraction [2] [%],cleaved PARP positive nuclei fraction [3] [%],cleaved PARP positive nuclei fraction [4] [%],cleaved PARP positive nuclei fraction [5] [%],cleaved PARP positive nuclei fraction [6] [%],cleaved PARP positive nuclei fraction [7] [%],cleaved PARP positive nuclei fraction [8] [%],cleaved PARP positive nuclei fraction [9] [%],cleaved PARP positive nuclei fraction [10] [%],cleaved PARP positive nuclei fraction [11] [%],cleaved PARP positive nuclei fraction [12] [%],cleaved PARP positive nuclei fraction [13] [%],cleaved PARP positive nuclei fraction [14] [%],cleaved PARP positive nuclei fraction [15] [%],cleaved PARP positive nuclei fraction [16] [%]
"Cn1c(=O)n(-c2ccc(C(C)(C)C#N)cc2)c2c3cc(-c4cnc5ccccc5c4)ccc3ncc21 + Oc1cc(-c2nc(-c3ccccc3)[nH]c2-c2ccncc2)ccc1Cl [L779450] (first compound 0.004 µM, partner dose 0.2 µM)",92.6,29.8,80.1,179,51.5,109,34.9,108,106,138,82.6,161,124,149,99.1,400
"CCCS(=O)(=O)Nc1ccc(F)c(C(=O)c2c[nH]c3ncc(Cl)cc23)c1F + COc1ccc(-c2ccc3c(N4CCOCC4)nc(N4C[C@@H](C)O[C@@H](C)C4)nc3n2)cc1CO [KU0063794] (first compound 0.08 µM, partner dose 0.02 µM)",116,31.5,70.7,117,317,293,52.1,82.8,139,34.4,63.2,341,52.3,100,60.5,218
"O=C(O)[C@@H]1[O][Sb](=[O])([O][Sb]2(=[O])[O][C@H]([C@H](O)CO)[C@H](O)[C@H](C(=O)O)[O]2)[O][C@H]([C@H](O)CO)[C@@H]1O (some centres not stated) [stibogluconate] + CCCCCCCCCCCC1=C(O)C(=O)C=C(O)C1=O [Embelin] (first compound 2 µM, partner dose 1.2 µM)",303,5250,60.9,225,96.6,94.6,80.4,137,67.3,65.8,21.5,118,43.8,24.8,74.6,21.7
"C[C@@H](Oc1cc(-c2cnn(C3CCNCC3)c2)cnc1N)c1c(Cl)ccc(F)c1Cl [Crizotinib] + CCCCCCCCCCCC1=C(O)C(=O)C=C(O)C1=O [Embelin] (first compound 0.2 µM, partner dose 1.2 µM)",64.3,13.9,46.4,47.9,109,78.1,54.3,98.7,98.7,135,106,99.8,90.5,118,70.2,201
"CNC(=O)c1cc(Oc2ccc(NC(=O)Nc3ccc(Cl)c(C(F)(F)F)c3)cc2)ccn1 [sorafenib] + COc1cc2ncnc(Nc3ccc(Oc4ccccc4)cc3)c2cc1OC [SrcI1] (first compound 0.4 µM, partner dose 2 µM)",152,37,91.7,88.5,55.8,83.1,29.2,92.2,169,62.5,80.4,44.5,200,48.3,114,51
"C[C@@H](Oc1cc(-c2cnn(C3CCNCC3)c2)cnc1N)c1c(Cl)ccc(F)c1Cl [Crizotinib] + COc1ccc(-c2ccc3c(N4CCOCC4)nc(N4C[C@@H](C)O[C@@H](C)C4)nc3n2)cc1CO [KU0063794] (first compound 0.2 µM, partner dose 0.02 µM)",69,38.4,170,126,88.1,96.4,26.7,114,72.8,208,60.7,90.5,102,213,69.3,102
"Nc1ncn([C@H]2C[C@H](O)[C@@H](CO)O2)c(=O)n1 [decitabine] + COc1cc2ncnc(Nc3ccc(Oc4ccccc4)cc3)c2cc1OC [SrcI1] (first compound 0.1 µM, partner dose 2 µM)",73.6,38,125,75.5,188,93.6,29.1,94.9,49.5,79.6,85.2,163,143,105,77.9,186
"Cc1cc(Nc2cc(N3CCN(C)CC3)nc(/C=C/c3ccccc3)n2)n[nH]1 + Oc1nc(-c2ccc(C(F)(F)F)cc2)nc2c1CSCC2 [XAV939] (first compound 0.04 µM, partner dose 2 µM)",27.5,17.6,24.9,40.6,149,90.2,15.5,81.1,44.2,129,82.2,139,63.7,45.4,82.2,56.4
"CC(C)C[C@H](NC(=O)[C@H](Cc1ccccc1)NC(=O)c1cnccn1)B(O)O [Bortezomib] + COc1ccc(COc2ccc(Cc3cnc(N)nc3N)cc2OC)cc1 [GW2580] (first compound 0.001 µM, partner dose 1 µM)",66.8,44,79.1,349,871,166,137,102,145,139,145,255,67.7,165,70.7,52.2
"Cc1cc(Nc2cc(N3CCN(C)CC3)nc(/C=C/c3ccccc3)n2)n[nH]1 + CCCCCCCCCCCC1=C(O)C(=O)C=C(O)C1=O [Embelin] (first compound 0.04 µM, partner dose 1.2 µM)",130,34.9,40.1,67.2,67.7,42.3,93,80.7,25,306,171,147,120,28.1,29.2,77
"C[C@@H](Oc1cc(-c2cnn(C3CCNCC3)c2)cnc1N)c1c(Cl)ccc(F)c1Cl [Crizotinib] + CCN(CC)CCCCNc1ncc2cc(-c3cc(OC)cc(OC)c3)c(NC(=O)NC(C)(C)C)nc2n1 [PD173074] (first compound 0.2 µM, partner dose 0.1 µM)",70.6,158,141,42.5,148,108,41,64.3,85.9,178,119,75.3,144,122,70.1,80.8
"O=C(O)c1ccc2c(c1)nc(Nc1cccc(Cl)c1)c1ccncc12 + O=C1NC(=O)/C(=C/c2ccc(-c3ccc(F)cc3O)o2)S1 [AS252424] (first compound 0.4 µM, partner dose 1 µM)",69,18.4,140,49.7,278,121,990,141,140,29.5,204,120,50.1,340,79.3,196
"CN1CCN(c2ccc3nc(-c4c(N)c5c(F)cccc5[nH]c4=O)[nH]c3c2)CC1 [Dovitinib] + COc1cc2ncnc(Nc3ccc(Oc4ccccc4)cc3)c2cc1OC [SrcI1] (first compound 0.1 µM, partner dose 2 µM)",131,45.5,45.4,41.4,147,95.2,20.7,103,59.7,288,48.9,122,98.8,107,75.2,157
"Cn1c(=O)n(-c2ccc(C(C)(C)C#N)cc2)c2c3cc(-c4cnc5ccccc5c4)ccc3ncc21 + Oc1nc(-c2ccc(C(F)(F)F)cc2)nc2c1CSCC2 [XAV939] (first compound 0.004 µM, partner dose 2 µM)",71.8,23.3,62.4,132,174,77.9,23.9,93.5,212,130,97.4,64.6,66.9,96.1,73.8,84
"Nc1nc(F)nc2c1ncn2[C@@H]1O[C@H](CO)[C@@H](O)[C@@H]1O [fludarabine] + CCN(CC)CCCCNc1ncc2cc(-c3cc(OC)cc(OC)c3)c(NC(=O)NC(C)(C)C)nc2n1 [PD173074] (first compound 0.2 µM, partner dose 0.1 µM)",1350,13.8,112,122,40.9,122,80.6,219,32.4,196,63.4,103,51.4,115,76.8,108
"CO[C@H]1C[C@@H]2CC[C@@H](C)[C@@](O)(O2)C(=O)C(=O)N2CCCC[C@H]2C(=O)O[C@H]([C@H](C)C[C@@H]2CC[C@@H](OCCO)[C@H](OC)C2)CC(=O)[C@H](C)/C=C(\C)[C@@H](O)[C@@H](OC)C(=O)[C@H](C)C[C@H](C)/C=C/C=C/C=C/1C [everolimus] + COC(=O)c1sccc1S(=O)(=O)Nc1ccc(Nc2ccccc2)cc1OC [GSK0660] (first compound 0.02 µM, partner dose 1 µM)",225,76.5,155,37.3,328,111,26.2,90.8,273,65.3,66.3,124,28.7,109,89.2,105
"O=C(O)[C@@H]1[O][Sb](=[O])([O][Sb]2(=[O])[O][C@H]([C@H](O)CO)[C@H](O)[C@H](C(=O)O)[O]2)[O][C@H]([C@H](O)CO)[C@@H]1O (some centres not stated) [stibogluconate] + Cn1cc(/C=C2\C(=O)Nc3cccnc32)c2ccccc21 [GW441756] (first compound 2 µM, partner dose 0.4 µM)",31.6,8.74,108,69.1,62.3,103,39.9,75.9,118,43.5,79.8,81.9,60.3,68.8,62.3,200

# Just cleaved PARP positive nuclei fraction [6] [%], cleaved PARP positive nuclei fraction [7] [%] and cleaved PARP positive nuclei fraction [12] [%], for some of the entries so far:
SMILES	cleaved PARP positive nuclei fraction [6] [%]	cleaved PARP positive nuclei fraction [7] [%]	cleaved PARP positive nuclei fraction [12] [%]
Nc1nc(F)nc2c1ncn2[C@@H]1O[C@H](CO)[C@@H](O)[C@@H]1O [fludarabine] + CCN(CC)CCCCNc1ncc2cc(-c3cc(OC)cc(OC)c3)c(NC(=O)NC(C)(C)C)nc2n1 [PD173074] (first compound 0.2 µM, partner dose 0.1 µM)	122	80.6	103
CO[C@H]1C[C@@H]2CC[C@@H](C)[C@@](O)(O2)C(=O)C(=O)N2CCCC[C@H]2C(=O)O[C@H]([C@H](C)C[C@@H]2CC[C@@H](OCCO)[C@H](OC)C2)CC(=O)[C@H](C)/C=C(\C)[C@@H](O)[C@@H](OC)C(=O)[C@H](C)C[C@H](C)/C=C/C=C/C=C/1C [everolimus] + COC(=O)c1sccc1S(=O)(=O)Nc1ccc(Nc2ccccc2)cc1OC [GSK0660] (first compound 0.02 µM, partner dose 1 µM)	111	26.2	124
